According to patent US20120316184A1, “NOVEL MICROBICIDES” (SYNGENTA CROP PROTECTION LLC, priority 2010, published 2012):
Some results were stated once for a whole list of compounds, not compound by compound.

What was measured:
[1] = tested on: Botryotinia fuckeliana (Botrytis cinerea); assay: Fungicidal activity against Botryotinia fuckeliana (Botrytis cinerea) / liquid culture (gray mould); format: cell-based; details: 200 ppm; liquid culture (Vogels broth), inhibition of growth determined photometrically 3-4 days after application
Procedure: Fungicidal Activity Against Botryotinia fuckeliana (Botrytis cinerea)/Liquid Culture (Gray Mould) Conidia of the fungus from cryogenic storage were directly mixed into nutrient broth (Vogels broth). After placing a (DMSO) solution of test compound into a microtiter plate (96-well format), the nutrient broth containing the fungal spores was added. The test plates were incubated at 24° C. and the inhibition of growth was determined photometrically 3-4 days after application.

Gaeumannomyces graminis = assay: Fungicidal activity against Gaeumannomyces graminis / liquid culture (take-all of cereals); format: cell-based; details: 200 ppm; liquid culture (PDB), inhibition of growth determined photometrically 4-5 days after application
Procedure: (§1) Fungicidal Activity Against Gaeumannomyces graminis/Liquid Culture (Take-all of Cereals) Mycelial fragments of the fungus from cryogenic storage were directly mixed into nutrient broth (PDB potato dextrose broth). After placing a (DMSO) solution of test compound into a microtiter plate (96-well format), the nutrient broth containing the fungal spores is added. The test plates were incubated at 24° C. and the inhibition of growth was determined photometrically 4-5 days after application.

[2] = tested on: Mycosphaerella arachidis (Cercospora arachidicola); assay: Fungicidal activity against Mycosphaerella arachidis (Cercospora arachidicola) / liquid culture (early leaf spot); format: cell-based; details: 200 ppm; liquid culture (PDB), inhibition of growth determined photometrically 4-5 days after application
Procedure: as §1, with “Mycosphaerella arachidis (Cercospora arachidicola)/Liquid” for “Gaeumannomyces graminis/Liquid”, “(Early Leaf Spot) Conidia” for “(Take-all of Cereals) Mycelial fragments”, “was” for “is”

[3] = tested on: Phaeosphaeria nodorum (Septoria nodorum); assay: Fungicidal activity against Phaeosphaeria nodorum (Septoria nodorum) / wheat / leaf disc preventative (glume blotch); format: in vivo; details: 200 ppm; wheat leaf segments cv. Kanzler, inoculated 2 days after application, assessed 5-7 days after application, vs untreated
Procedure: Fungicidal Activity Against Phaeosphaeria nodorum (Septoria nodorum)/Wheat/Leaf Disc Preventative (Glume Blotch) Wheat leaf segments cv. Kanzler were placed on agar in a multiwell plate (24-well format) and sprayed with the formulated test compound diluted in water. The leaf disks were inoculated with a spore suspension of the fungus 2 days after application. The inoculated test leaf disks were incubated at 20° C. and 75% rh under a light regime of 12 h light/12 h darkness in a climate cabinet and the activity of a compound was assessed as percent disease control compared to untreated when an appropriate level of disease damage appears in untreated check leaf disks (5-7 days after application).

[4] = tested on: Glomerella lagenarium (Colletotrichum lagenarium); assay: Fungicidal activity against Glomerella lagenarium (Colletotrichum lagenarium) / liquid culture (anthracnose); format: cell-based; details: 200 ppm; liquid culture (PDB), inhibition of growth measured photometrically 3-4 days after application
Procedure: as §1, with “Glomerella lagenarium (Colletotrichum lagenarium)/Liquid” for “Gaeumannomyces graminis/Liquid”, “(Anthracnose) Conidia” for “(Take-all of Cereals) Mycelial fragments”, “was” for “is”, “measured” for “determined”, “3-4” for “4-5”

Pyrenophora teres = assay: Fungicidal activity against Pyrenophora teres / barley / leaf disc preventative (net blotch); format: in vivo; details: 200 ppm; barley leaf segments cv. Hasso, inoculated 2 days after application, assessed 5-7 days after application, vs untreated
Procedure: Fungicidal Activity Against Pyrenophora teres/Barley/Leaf Disc Preventative (Net Blotch) Barley leaf segments cv. Hasso were placed on agar in a multiwell plate (24-well format) and sprayed with the formulated test compound diluted in water. The leaf […] inoculated with a spore suspension of the fungus 2 days after application. The inoculated leaf segments were incubated at 20° C. and 65% rh under a light regime of 12 h light/12 h darkness in a climate cabinet and the activity of a compound was assessed as disease control compared to untreated when an appropriate level of disease damage appears in untreated check leaf segments (5-7 days after application).

[5] = tested on: Mycosphaerella graminicola (Septoria tritici); assay: Fungicidal activity against Mycosphaerella graminicola (Septoria tritici) / liquid culture (Septoria blotch); format: cell-based; details: 200 ppm; liquid culture (PDB), inhibition of growth determined photometrically 4-5 days after application
Procedure: as §1, with “Mycosphaerella graminicola (Septoria tritici)/Liquid” for “Gaeumannomyces graminis/Liquid”, “(Septoria Blotch) Conidia” for “(Take-all of Cereals) Mycelial fragments”, “was” for “is”

[6] = tested on: Monographella nivalis (Microdochium nivale); assay: Fungicidal activity against Monographella nivalis (Microdochium nivale) / liquid culture (foot rot cereals); format: cell-based; details: 200 ppm; liquid culture (PDB), inhibition of growth determined photometrically 4-5 days after application
Procedure: as §1, with “Monographella nivalis (Microdochium nivale)/Liquid” for “Gaeumannomyces graminis/Liquid”, “(Foot Rot” for “(Take-all of”, “Conidia” for “Mycelial fragments”, “was” for “is”

Plasmopara viticola = format: in vivo; details: 200 ppm; grape vine leaf disks, inoculated 1 day after application, assessed 6-8 days after application, vs untreated
[7] = tested on: Thanatephorus cucumeris (Rhizoctonia solani); assay: Fungicidal activity against Thanatephorus cucumeris (Rhizoctonia solani) / liquid culture (foot rot, damping-off); format: cell-based; details: 200 ppm; liquid culture (PDB), inhibition of growth determined photometrically 3-4 days after application
[8] = tested on: Puccinia recondita f. sp. tritici; assay: Fungicidal activity against Puccinia recondita f. sp. tritici / wheat / leaf disc preventative (brown rust); format: in vivo; details: 200 ppm; wheat leaf segments cv. Kanzler, inoculated 1 day after application, assessed 7-9 days after application, vs untreated
Procedure: Fungicidal Activity Against Puccinia recondita f. sp. tritici/Wheat/Leaf Disc Preventative (Brown Rust) Wheat leaf segments cv. Kanzler were placed on agar in multiwell plates (24-well format) and sprayed with the formulated test compound diluted in water. The leaf disks were inoculated with a spore suspension of the fungus 1 day after application. The inoculated leaf segments were incubated at 19° C. and 75% rh under a light regime of 12 h light/12 h darkness in a climate cabinet and the activity of a compound was assessed as percent disease control compared to untreated when an appropriate level of disease damage appears in untreated check leaf segments (7-9 days after application).

Alternaria solani = assay: Fungicidal activity against Alternaria solani / tomato / leaf disc (early blight); format: in vivo; details: 200 ppm; tomato leaf disks cv. Baby, inoculated 2 days after application, assessed 5-7 days after application, vs untreated
[9] = tested on: Blumeria graminis f. sp. tritici (Erysiphe graminis f. sp. tritici); assay: Fungicidal activity against Blumeria graminis f. sp. tritici / wheat / leaf disc preventative (powdery mildew on wheat); format: in vivo; details: 200 ppm; wheat leaf segments cv. Kanzler, inoculated 1 day after application, assessed 6-8 days after application, vs untreated

Measured: disease control

c1ccc(Cc2cccc(-c3ncc4ncccc4n3)n2)cc1 [Compound T13.1.31]
not listed: Plasmopara viticola | [7] | [8] | Alternaria solani | [9]
at least 80%: all other assays above

Clc1nc(-c2cccc(Cc3ccccc3)n2)nc2sccc12 [Compound T3.1.33, 2-(6-benzyl-pyridin-2-yl)-4-chloro-thieno[2,3-d]pyrimidine]
at least 80%: Plasmopara viticola

Cc1csc2nc(-c3cccc(Cc4ccccc4)n3)ncc12 [Compound T4.1.31]
not listed: Plasmopara viticola | Alternaria solani | [9]
at least 80%: all other assays above

Cc1nc(-c2cccc(C#Cc3ccccc3)n2)nc2sccc12 [Compound T3.1.54]
at least 80%: [7] | Gaeumannomyces graminis | [2] | [3] | [4] | [5] | [6]

c1ccc(Cc2cccc(-c3ncc4ccsc4n3)n2)cc1 [Compound T3.1.31, 2-(6-benzyl-pyridin-2-yl)-thieno[2,3-d]pyrimidine]
at least 80%: Plasmopara viticola

Cc1ccc(-c2nc(C)c3ccsc3n2)nc1-c1ccccc1 [Compound T3.1.9]
not listed: [6] | Plasmopara viticola
at least 80%: all other assays above

Cc1ccc(-c2ncc3ncccc3n2)nc1-c1ccccc1 [Compound T13.1.6]
at least 80%: [1] | Gaeumannomyces graminis | [2] | [6]

Cc1nc(-c2cccc(Cc3ccccc3)n2)nc2sccc12 [Compound T3.1.34]
not listed: Plasmopara viticola | Alternaria solani
at least 80%: all other assays above

COc1ccc(-c2nc(-c3ncc4ccsc4n3)ccc2C)cc1F [Compound T3.1.66]
not listed: [6] | Plasmopara viticola | [8]
at least 80%: all other assays above
